Data source: PubChem BioAssay AID1259308 (NCATS, 2017)

- Assay: 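Knock-downs that increase output of a recombinant reporter protein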 (primary screen)
- Cell system: human HEK293 embryonic kidney cells stably expressing firefly luciferase (HEK-CMV-Luc2-Hygro)
- Knock-down reagent: single siRNA against human genes, 0.8 pmol siRNA per well
- Timing: 72 h
- Measured: 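Luciferase light (ONE-Glo) measured on one replicate plate set and viability (CellTiter-Glo) on the other, scaled to a negative control siRNA, with robust z-scores and luciferase per cell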
- Direction: total luciferase, z-score and total luciferase, % of control: higher = more reporter protein produced
- Hit rule: 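Active when the median/MAD z-score for overall luciferase is greater than 3; a gene was taken forward for validation with new siRNAs if at least two of its three siRNAs passed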
- Calls: active = raised luciferase; inactive = no rise
This is an unselected part of about 59,000 reagents. Of all reagents, about 1,510 (2.6%) are marked active. 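Calls use total luciferase alone and ignore viability, so some active siRNAs may act by altering cell number.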 The numbers tell different reagents against one gene apart. Further read-outs or replicates are left out here.

With knock-down of OR4A15 #1, the screen gave total luciferase, z-score 1.5; total luciferase, % of control 112; inactive.
OR4A15 #2 showed total luciferase, z-score -0.496; total luciferase, % of control 72; inactive.
Knock-down of OR4A15 #3 resulted in: total luciferase, z-score -0.647; total luciferase, % of control 69; inactive.
Against GRINA #1, the values are total luciferase, z-score -1.45; total luciferase, % of control 53; inactive.
For GRINA #2, the values are total luciferase, z-score -1.31; total luciferase, % of control 55.8; inactive.
For GRINA #3 the deposit lists total luciferase, z-score 1.48; total luciferase, % of control 111; inactive.
FZD10-AS1 #1 gave total luciferase, z-score -1.17; total luciferase, % of control 58.6; inactive.
With knock-down of FZD10-AS1 #2, the record shows total luciferase, z-score 2.79; total luciferase, % of control 137; inactive.
With knock-down of FZD10-AS1 #3, the screen gave total luciferase, z-score 1.03; total luciferase, % of control 102; inactive.
Silencing of S100A7 #1 gave: total luciferase, z-score 0.386; total luciferase, % of control 89.6; inactive.
After knock-down of S100A7 #2, the record shows total luciferase, z-score 2.19; total luciferase, % of control 126; inactive.
Silencing of S100A7 #3 gave: total luciferase, z-score -2.2; total luciferase, % of control 38.2; inactive.
NAPG #1 gave total luciferase, z-score -0.136; total luciferase, % of control 79.2; inactive.
With knock-down of NAPG #2 the results were total luciferase, z-score -0.0657; total luciferase, % of control 80.6; inactive.
Against NAPG #3 the deposit lists total luciferase, z-score 0.388; total luciferase, % of control 89.6; inactive.
Against LINS1 #1, the entry reads total luciferase, z-score -1.64; total luciferase, % of control 49.2; inactive.
With knock-down of LINS1 #2, the screen gave total luciferase, z-score 0.485; total luciferase, % of control 91.5; inactive.
LINS1 #3 showed total luciferase, z-score 0.732; total luciferase, % of control 96.4; inactive.
With knock-down of CBY1 #1, the record shows total luciferase, z-score 2.8; total luciferase, % of control 138; inactive.
Knock-down of CBY1 #2 came out at: total luciferase, z-score 0.268; total luciferase, % of control 87.2; inactive.
With knock-down of CBY1 #3, the screen gave total luciferase, z-score -0.409; total luciferase, % of control 73.8; inactive.
RIPPLY1 #1 scored total luciferase, z-score 0.983; total luciferase, % of control 101; inactive.
With knock-down of RIPPLY1 #2 the results were total luciferase, z-score 1.31; total luciferase, % of control 108; inactive.
Against RIPPLY1 #3 the deposit lists total luciferase, z-score 2.84; total luciferase, % of control 138; inactive.
MEIOSIN #1 showed total luciferase, z-score 0.0227; total luciferase, % of control 82.3; inactive.
Depletion of MEIOSIN #2 resulted in: total luciferase, z-score 5.89; total luciferase, % of control 199; active.
Depletion of MEIOSIN #3 came out at: total luciferase, z-score 0.362; total luciferase, % of control 89.1; inactive.
With knock-down of SH3RF3 #1 the results were total luciferase, z-score 0.207; total luciferase, % of control 86; inactive.
With knock-down of SH3RF3 #2, the screen gave total luciferase, z-score -0.736; total luciferase, % of control 67.2; inactive.
SH3RF3 #3 scored total luciferase, z-score 1.88; total luciferase, % of control 119; inactive.
Against PCDHA2 #1 the deposit lists total luciferase, z-score 0.674; total luciferase, % of control 95.3; inactive.
Depletion of PCDHA2 #2 came out at: total luciferase, z-score 0.325; total luciferase, % of control 88.4; inactive.
Against PCDHA2 #3 the deposit lists total luciferase, z-score 0.923; total luciferase, % of control 100; inactive.
